# Values from PubChem BioAssay AID1508597 (Cure First, 2020).
# Screen: 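Knock-downs altering ovarian cancer cell survival with or without PARP inhibitor rucaparib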 (primary screen)
# Cells: human ovarian carcinoma lines grown from tumours: OCI-P5x (papillary serous) and OCI-C5x (clear cell)
# Knock-down reagent: siRNA pool against human genes, 1.25 pmol siRNA per well
# Time to read-out: 72 h or 96 h, depending on the cell culture
# Challenge: rucaparib 20 µM (about IC30) or vehicle, present until read-out
# Rucaparib or vehicle: Rucaparib
# Cell line: OCI-P5x (serous)
# Read-out: 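Luminescent ATP-based viability assay read 72 or 96 h after transfection, depending on culture, given as normalised percent viability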
# Scale: viability, normalised: higher = more viable cells remaining
# Call rule: 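a well counts as a hit if its normalised viability is under 80 percent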
# Meaning of the calls: active = viability under 80%; inactive = viability 80% or more
# This is a random part of the about 2,100 reagents, in one setting of the screen. 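Calls flag viability under 80% in either arm, not effects specific to rucaparib; the reference for percent is not stated.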 Some reagents were tested in more than one well and are listed for each. No sequences are given here. Not stated in the record: the 100% reference.
Target gene,technical replicate,"viability, normalised (%)",Outcome
XRCC2,1,61.4,active
XRCC2,2,61.4,active
XRCC2,3,58.8,active
PDP1,1,83.3,inactive
PDP1,2,76.1,active
PDP1,3,74.9,active
PIK3C2A,1,117,inactive
PIK3C2A,2,114,inactive
PIK3C2A,3,101,inactive
GLI3,1,55.6,active
GLI3,2,65.7,active
GLI3,3,58.5,active
MBD5,1,47.1,active
MBD5,2,49.4,active
MBD5,3,55.5,active
PFKFB1,1,95.6,inactive
PFKFB1,2,102,inactive
PFKFB1,3,102,inactive
PLG,1,60.5,active
PLG,2,52.9,active
PLG,3,59.5,active
PANK1,1,130,inactive
PANK1,2,143,inactive
PANK1,3,85,inactive
ALPK1,1,73,active
ALPK1,1,89.1,inactive
ALPK1,2,77.3,active
ALPK1,2,108,inactive
ALPK1,3,90.6,inactive
ALPK1,3,78.5,active
DOT1L,1,53.2,active
DOT1L,2,73,active
DOT1L,3,78,active
PCDHB5,1,57.8,active
PCDHB5,2,60.3,active
PCDHB5,3,55,active
RLIM,1,61.7,active
RLIM,2,54.5,active
RLIM,3,57.7,active
PARP15,1,28.8,active
PARP15,2,33.6,active
PARP15,3,31.9,active
HP1BP3,1,58.8,active
HP1BP3,2,62.1,active
HP1BP3,3,46.7,active
EPHA10,1,103,inactive
EPHA10,2,87.4,inactive
EPHA10,3,79.9,active

Targets listed so far whose gene name begins with E or e (3):
Target gene,technical replicate,"viability, normalised (%)",Outcome
EPHA10,1,103,inactive
EPHA10,2,87.4,inactive
EPHA10,3,79.9,active

Continued.
Target gene,technical replicate,"viability, normalised (%)",Outcome
NEIL1,1,82.2,inactive
NEIL1,1,121,inactive
NEIL1,2,113,inactive
NEIL1,2,67.6,active
NEIL1,3,107,inactive
NEIL1,3,76.8,active
MTRF1,1,31.3,active
MTRF1,2,46.4,active
MTRF1,3,39.7,active
CLDN9,1,66.3,active
CLDN9,2,74.4,active
CLDN9,3,73,active
LIG1,1,75.3,active
LIG1,2,84.5,inactive
LIG1,3,62.7,active
RINT1,1,76,active
RINT1,2,77.1,active
RINT1,3,79.7,active
CSNK1G3,1,95.6,inactive
CSNK1G3,2,86.1,inactive
CSNK1G3,3,70,active
POLA1,1,88.6,inactive
POLA1,1,77.6,active
POLA1,2,87.4,inactive
POLA1,2,74,active
POLA1,3,82.2,inactive
POLA1,3,91.4,inactive
